# A negative result means that nothing was seen under these conditions. For some of these results: At least one verdict was read from the data and is not stated in words by the source. For some of these results: Tags and fusion partners may be left off the protein sequences shown.
# Tests used:
# Assay in all cases: EMSA
# [1] = system: Pum PUM-HD WT (EMSA) + Nos ZC WT (EMSA); details: ternary complex not formed; EMSA: 50 mM Tris-HCl pH 7.6, 150 mM NaCl, 2 mM DTT, 2 ug/mL BSA, 0.01% Igepal CA-630, 0.02% bromophenol blue, 20% glycerol, 3 h at 4 C; 1 nM Cy5 RNA or 0.3 nM 32P RNA; recombinant protein
# [2] = system: Pum PUM-HD WT (EMSA) + Nos ZC C354Y; details: ternary complex not formed; EMSA: 50 mM Tris-HCl pH 7.6, 150 mM NaCl, 2 mM DTT, 2 ug/mL BSA, 0.01% Igepal CA-630, 0.02% bromophenol blue, 20% glycerol, 3 h at 4 C; 1 nM Cy5 RNA or 0.3 nM 32P RNA; recombinant protein; label: 5' Cy5
# [3] = system: Pum Q1337A + Nos ZC WT (EMSA); details: ternary complex not formed, RNA label form not stated; EMSA: 50 mM Tris-HCl pH 7.6, 150 mM NaCl, 2 mM DTT, 2 ug/mL BSA, 0.01% Igepal CA-630, 0.02% bromophenol blue, 20% glycerol, 3 h at 4 C; 1 nM Cy5 RNA or 0.3 nM 32P RNA; recombinant protein; label: 5' Cy5
# [4] = molecular target: T1, Pum mutR7 S1342A,N1343A,E1346A (UniProt P25822); details: described as RNA-binding deficient; EMSA: 50 mM Tris-HCl pH 7.6, 150 mM NaCl, 2 mM DTT, 2 ug/mL BSA, 0.01% Igepal CA-630, 0.02% bromophenol blue, 20% glycerol, 3 h at 4 C; 1 nM Cy5 RNA or 0.3 nM 32P RNA; recombinant protein; residues 1091-1426; protein details: N-terminal 3xFLAG, Halo-tag removed by TEV; label: 5' Cy5
# T1 sequence (looked up): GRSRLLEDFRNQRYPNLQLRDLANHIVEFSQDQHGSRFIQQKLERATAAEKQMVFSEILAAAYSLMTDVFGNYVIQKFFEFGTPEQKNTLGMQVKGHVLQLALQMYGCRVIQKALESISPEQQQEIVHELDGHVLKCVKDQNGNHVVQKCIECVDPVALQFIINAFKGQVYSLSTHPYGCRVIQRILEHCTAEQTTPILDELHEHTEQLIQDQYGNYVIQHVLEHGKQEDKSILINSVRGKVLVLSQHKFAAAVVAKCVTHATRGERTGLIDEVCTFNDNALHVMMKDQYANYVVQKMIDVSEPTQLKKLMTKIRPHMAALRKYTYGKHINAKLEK
# [5] = system: Pum PUM-HD WT (EMSA) + Nos ZC C319Y; details: ternary complex not formed; EMSA: 50 mM Tris-HCl pH 7.6, 150 mM NaCl, 2 mM DTT, 2 ug/mL BSA, 0.01% Igepal CA-630, 0.02% bromophenol blue, 20% glycerol, 3 h at 4 C; 1 nM Cy5 RNA or 0.3 nM 32P RNA; recombinant protein; label: 5' Cy5
# [6] = system: Pum F1367S + Nos ZC WT (EMSA); details: ternary complex not formed, RNA label form not stated; EMSA: 50 mM Tris-HCl pH 7.6, 150 mM NaCl, 2 mM DTT, 2 ug/mL BSA, 0.01% Igepal CA-630, 0.02% bromophenol blue, 20% glycerol, 3 h at 4 C; 1 nM Cy5 RNA or 0.3 nM 32P RNA; recombinant protein; label: 5' Cy5
Sequence,binding result [1],binding result [2],binding result [3],binding result [4],binding result [5],binding result [6]
AAACUGUACAUAAGCC [hb NRE2 -1C RNA],no binding,–,–,–,–,–
AACUUGUACAUAAGCC [hb NRE2 -2C RNA],no binding,–,–,–,–,–
UUGUUGUCGAAAAUUGUACAUAAGCC [Cy5-hb NRE2 RNA],–,no binding,no binding,no binding,no binding,no binding
